Some results were stated once for a whole list of compounds, not compound by compound. Some compounds share one range, which may span the group rather than tell each member.
tested on: PreOLs; assay: PreOL proliferation (CYQUANT DNA content assay); format: cell-based, rat; details: rescreening side-by-side with diazoxide, 3 independent plates

Structure (SMILES) | potency relative to diazoxide in promoting proliferation
NS(=O)(=O)c1ccc(CCNC(=O)CCC2=Nc3ccccc3S(=O)(=O)N2)cc1 [Compound K261-0288, 2,6-dibromo-1,1,4a-trimethyl-2,3,4,4a,9,9a-hexahydro-1H-xanthen-7-ol 3-(1,1-dioxido-2H-benzo[e][1,2,4]thiadiazin-3-yl)-N-(4-sulfamoylphenethyl)propanamide] | 5-10 fold
CCOCCCNC(=O)CCC1=Nc2ccccc2S(=O)(=O)N1 [Compound K261-0298, 3-(1,1-dioxido-2H-benzo[e][1,2,4]thiadiazin-3-yl)-N-(3-ethoxypropyl)propanamide] | 5-10 fold
COCCCNC(=O)CCCC1=Nc2ccccc2S(=O)(=O)N1 [Compound K261-0186, 4-(1,1-dioxido-2H-benzo[e][1,2,4]thiadiazin-3-yl)-N-(3-methoxypropyl)butanamide] | 5-10 fold
